Test results as given in patent US9353061B2, “3,5,N-trihydroxy-alkanamide and derivatives: method for making same and use thereof” (Academia Sinica, priority 2012, dated 2016).

Key:
[1] = test system: A549 human lung cancer cells; experiment: Cell proliferation (MTT) assay, cancer cells; settings: read-out: IC50 (μM) A549, 72 h
[2] = test system: HS68 normal human fibroblast cells; assay type: cell-based; settings: 72 h, MTT assay
[3] = test system: MEF normal mouse fibroblast cells; assay type: cell-based; settings: 72 h, MTT assay

With O=C(CCCCCCC(=O)Nc1ccccc1)NO [SAHA, suberoylanalide hydroxamic acid, reference compound] the IC50 [1] was 4.5 ± 0.8 µM, the IC50 [2] was 4.6 ± 0.7 µM and the IC50 [3] was 4.4 ± 1.4 µM.
